Measurements reported in PubChem BioAssay AID1224828 (NIAID, 2016).
Aim: 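Find genes required for NF-kappaB p65 moving into the nucleus after LPS in mouse macrophages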 (primary screen). System: mouse RAW264.7 G9 macrophage reporter cells (GFP-p65, Tnf promoter-mCherry). Knock-down reagent: siRNA pool against mouse genes, 100 nM. Duration: 2 days siRNA transfection, then 40 min LPS before fixation. Conditions: LPS (Salmonella minnesota R595) at 10 ng/ml. Detection: 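Imaged p65 nuclear translocation ratio, normalised to the plate median, converted to robust z-scores and averaged across two replicates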. Direction: p65 translocation robust z-score: higher = more nuclear NF-kappaB p65 after LPS than the plate median; nuclear/cytoplasmic p65 ratio: higher = more nuclear NF-kappaB p65. Hit rule: 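Called active when z exceeds 3.3 or falls under -1.56 (median of Tlr4 controls), giving activity score of at least 50; no calls for control wells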. Meaning of the calls: active = hit (p65 shift raised or lowered); inactive = no clear change.
This is an unselected part of about 17,000 deposited reagents. 762 of all reagents (4.5%) count as active. 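Active calls include both raised and lowered p65 entry, mostly lowered; wells with fewer than 50 cells lack a z-score.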 The raw values are shown without normalisation. The numbers tell different reagents against one gene apart.

With Vmn1r82, what does the deposit list?
nuclear/cytoplasmic p65 ratio, rep 1: 1.31; nuclear/cytoplasmic p65 ratio, rep 2: 1.09; low cell count flag: fewer than 50 cells per well; well left out of scoring; Outcome: inactive

What did the screen give for Caml?
p65 translocation robust z-score: -0.89; nuclear/cytoplasmic p65 ratio, rep 1: 1.55; nuclear/cytoplasmic p65 ratio, rep 2: 1.54; low cell count flag: enough cells to score; Outcome: inactive

What did the screen give for Gzmn?
p65 translocation robust z-score: 0.04; nuclear/cytoplasmic p65 ratio, rep 1: 1.53; nuclear/cytoplasmic p65 ratio, rep 2: 1.56; low cell count flag: enough cells to score; Outcome: inactive

What is on record for Dym?
p65 translocation robust z-score: 1.85; nuclear/cytoplasmic p65 ratio, rep 1: 1.53; nuclear/cytoplasmic p65 ratio, rep 2: 1.71; low cell count flag: enough cells to score; Outcome: inactive

What is on record for Usp7?
p65 translocation robust z-score: 0.12; nuclear/cytoplasmic p65 ratio, rep 1: 1.59; nuclear/cytoplasmic p65 ratio, rep 2: 1.47; low cell count flag: enough cells to score; Outcome: inactive

2 entries from above in another layout.
{"target gene":"Gzmn","reagent no.":1,"p65 translocation robust z-score":0.04,"nuclear/cytoplasmic p65 ratio, rep 1":1.53,"nuclear/cytoplasmic p65 ratio, rep 2":1.56,"low cell count flag":"enough cells to score","Outcome":"inactive"}
{"target gene":"Dym","reagent no.":1,"p65 translocation robust z-score":1.85,"nuclear/cytoplasmic p65 ratio, rep 1":1.53,"nuclear/cytoplasmic p65 ratio, rep 2":1.71,"low cell count flag":"enough cells to score","Outcome":"inactive"}

More records:
For Khdc4, how do the results read?
p65 translocation robust z-score: 0.71; nuclear/cytoplasmic p65 ratio, rep 1: 1.45; nuclear/cytoplasmic p65 ratio, rep 2: 1.6; low cell count flag: enough cells to score; Outcome: inactive

With Ermard #1, how do the results read?
p65 translocation robust z-score: -1.4; nuclear/cytoplasmic p65 ratio, rep 1: 1.5; nuclear/cytoplasmic p65 ratio, rep 2: 1.16; low cell count flag: enough cells to score; Outcome: inactive

With Ermard #2, how do the results read?
nuclear/cytoplasmic p65 ratio, rep 1: 1.73; nuclear/cytoplasmic p65 ratio, rep 2: 1.9; low cell count flag: fewer than 50 cells per well; well left out of scoring; Outcome: inactive

With Poldip3, how do the results read?
p65 translocation robust z-score: -0.72; nuclear/cytoplasmic p65 ratio, rep 1: 1.29; nuclear/cytoplasmic p65 ratio, rep 2: 1.13; low cell count flag: enough cells to score; Outcome: inactive

What is on record for Asb17?
p65 translocation robust z-score: 0.15; nuclear/cytoplasmic p65 ratio, rep 1: 1.65; nuclear/cytoplasmic p65 ratio, rep 2: 1.5; low cell count flag: enough cells to score; Outcome: inactive

With Hmox1, what does the deposit list?
p65 translocation robust z-score: -1.33; nuclear/cytoplasmic p65 ratio, rep 1: 1.24; nuclear/cytoplasmic p65 ratio, rep 2: 1.22; low cell count flag: enough cells to score; Outcome: inactive

With Cenpm, what does the deposit list?
nuclear/cytoplasmic p65 ratio, rep 1: 1.19; nuclear/cytoplasmic p65 ratio, rep 2: 1.25; low cell count flag: fewer than 50 cells per well; well left out of scoring; Outcome: inactive
